Source: paper PMC8653649, “Promising Hybrids Derived from S-Allylcysteine and NSAIDs Fragments against Colorectal Cancer: Synthesis, In-vitro Evaluation, Drug-Likeness and In-silico ADME/tox Studies” (Iranian Journal of Pharmaceutical Research : IJPR, 2021)

System: SW480 human colon adenocarcinoma cells
Experiment: Sulforhodamine B (SRB) growth inhibition / cytotoxicity, SW480;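 also: cells exposed to graded doses from 10^-5 to 0.2 mM, with 1% DMSO as vehicle control, and cellular protein quantified by SRB staining after trichloroacetic acid fixation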
Format: cell-based
Settings: mean ± SE

Compound: COc1ccc2cc([C@H](C)C(=O)O)ccc2c1 [Naproxen, reference compound]
- IC50 (24 h): > 0.2 mM
- IC50 (48 h): > 0.2 mM
